The supplement of paper PMC3334620
The full ranking holds about 33,000 sequences; the median of “E-score (-0.5 to 0.5)” is about -0.0014, and the highest 2% start at about 0.25. This is one part of the list.

biological target: T1, Cad1 (UniProt P24813); assay: PBM E-score (8-mer binding enrichment) (E-score (-0.5 to 0.5)); higher = stronger / more preferred TF binding; settings: protein concentration: 100 nM; construct: GST-full length
T1 sequence: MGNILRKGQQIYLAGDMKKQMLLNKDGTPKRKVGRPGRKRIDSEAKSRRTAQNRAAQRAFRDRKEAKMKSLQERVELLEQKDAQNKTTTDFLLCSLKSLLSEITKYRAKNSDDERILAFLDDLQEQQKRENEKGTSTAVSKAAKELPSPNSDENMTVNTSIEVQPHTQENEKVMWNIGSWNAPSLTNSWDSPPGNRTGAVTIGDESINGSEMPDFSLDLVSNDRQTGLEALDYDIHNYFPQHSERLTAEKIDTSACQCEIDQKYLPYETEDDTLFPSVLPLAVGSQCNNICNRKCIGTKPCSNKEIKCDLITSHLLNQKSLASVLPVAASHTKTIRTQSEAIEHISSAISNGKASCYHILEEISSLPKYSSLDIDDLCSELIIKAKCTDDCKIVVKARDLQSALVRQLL
Method: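 Universal 'all 10-mer' protein binding microarrays (Agilent AMADID 015681) probed with GST-tagged S. cerevisiae TFs (full-length or DBD) made by in vitro transcription/translation (PURExpress), about 100-200 nM. Bound TF was detected with fluorescent anti-GST. Each ungapped 8-mer (which stands for itself and its reverse complement) is scored by the PBM enrichment score (E-score), a modified Wilcoxon-Mann-Whitney statistic from -0.5 to +0.5, computed with the Universal PBM Analysis Suite. Scale: above 0.35 generally sequence-specific binding.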

Point of comparison: CGGAGCTC, “PBM E-score” value -0.169. Against it:
- ACTTAGAT — higher, 0.223
- GGACATAC — higher, -0.0127
- CTTCCAAA — higher, 0.0591
- GAAGATCC — higher, -0.12
- CCCGCGAA — higher, 0.11
- ATCGTAAG — higher, -0.0168
- ACTGCCGC — higher, 0.0883
- AGTAAAAC — higher, 0.0871
- CGTGCATC — higher, -0.081
- CATAGAAC — higher, -0.0836
- AGATAACA — higher, 0.121
- GTGCTCTA — higher, -0.119
- CAGCTAGA — higher, -0.0654
- AACGTTTG — higher, 0.0251
- TCAGCCGA — higher, 0.0312
- ACCCATAG — lower, -0.265
- AAGACCTC — lower, -0.216
- CTCAAGGA — higher, 0.00237
- AAGCGCTG — higher, 0.212
- ATATAAGA — higher, 0.22
- ACCCGTTA — higher, -0.0468
- AAATAAGA — higher, 0.0927
- GCAGGACA — higher, 0.128
- CCTCGCTA — lower, -0.238
- CTGTTACA — higher, 0.00341
- CAAGGAAC — higher, 0.0717
- AGGCCAAA — higher, 0.0775
- CTGTCGAA — higher, -0.00556
- CAATGCTA — higher, 0.036
- CGTTTGCA — higher, 0.104
- CCGCTCGC — lower, -0.176
- AGCTAACG — higher, 0.00297
- AGTGATAA — higher, 0.0537
- AAGATTCG — higher, 0.172
- GCTTAAGA — higher, 0.0319
- AAAGCAAG — higher, 0.0883
- GATCACAC — higher, -0.0166
- CGGTTCCA — higher, 0.085
- GCTGTCAC — higher, -0.0985
- AGGGTTTC — higher, -0.074
- CCCGGAGG — lower, -0.36
- CACTCTAG — higher, -0.0635
- CCTTATTC — higher, -0.103
- ACAACGTA — higher, -0.0654
- ACACCGCC — higher, 0.0284
- AGAACGGG — higher, -0.166
- CTGAAAAA — higher, 0.0585
- AAATCAAT — higher, 0.109
- CGGCCCCG — lower, -0.177
- AGGGTTAC — higher, -0.133
- AGTCCAGG — higher, -0.16
- AACAAGAT — higher, 0.126
- CAACCGCG — higher, 0.297
- CGATGCAC — higher, -0.0939
- CTATCTAA — higher, 0.00628
- GCAGGCAA — higher, 0.131
- AACCATGC — higher, 0.176
- AGTTAAAC — higher, 0.0883
- ACGGCCAG — higher, 0.0397
- AAAGTCAA — higher, -0.0656
- TAAATGAA — higher, -0.0294
- GGCCCAAC — higher, 0.0185
- GCTCTGAC — higher, -0.0426
- CCGGAACA — higher, 0.108
- ACCACATG — higher, 0.183
- CTGCCAAC — higher, -0.0116
- ACTTAGGC — higher, -0.0295
- ACCCCGTC — lower, -0.254
- GCGCTCAA — higher, 0.125
- CACCCTAA — higher, 0.0895
- ACAGTTCA — higher, 0.115
- GGATGGAC — higher, -0.051
- CATTCTGA — higher, 0.0397
- GAACGATC — higher, 0.0052
- TCACTGGA — higher, -0.0472
- CCTCCCGA — lower, -0.191
- CTACCCGC — higher, -0.0849
- GTCTGTAA — higher, 0.0181
- ATCACTGC — higher, 0.0917
- CGCCTCCA — higher, -0.04
- CAAACATC — higher, 0.0154
- AACGCGCC — higher, -0.0193
- AAATAGTT — higher, 0.129
- ACAGGTAC — lower, -0.213
- TATCAGGA — higher, 0.116
- GCGGACGC — higher, -0.00201
- CCCATTGC — higher, -0.105
- CTCGACTC — higher, 0.002
- ATGGTAAG — higher, -0.124
- GAAATTCC — higher, 0.0725
- ACCTACAA — higher, 0.17
- AGACCTGC — lower, -0.191
- AAGACTTA — higher, -0.0766
- AACCGAAA — higher, 0.164
- AGTCTGCC — higher, -0.0107
- CCCCCAGC — lower, -0.368
- CATACCGA — higher, -0.1
- GGTCCCAA — higher, -0.116
- CGACTGGA — higher, -0.0784
- GGCCTTAA — higher, 0.128
- TCTGCCAA — higher, -0.131
- AAGCAGGA — higher, 0.0169
- CCATATGG — higher, 0.207
- CTGAGTCA — higher, 0.149
- AACCAAGT — higher, 0.0561
- ATGTGACC — higher, 0.0156
- ATGAGAGA — higher, 0.0852
- TACCGGTA — higher, 0.0874
- GGGCTGTA — lower, -0.205
- AGACGATA — higher, 0.213
- AATGCGGA — higher, 0.148
- ACCTAGTA — lower, -0.271
- AAGATAAG — higher, 0.062
- CACGGCGG — higher, -0.0994
- CTATACGA — higher, -0.0469
- ACCTATCA — higher, -0.0641
- ATATGCTC — higher, -0.115
- ATACGCAT — higher, 0.0481
- TTCTGCAA — higher, 0.0661
- AAGGCCCA — lower, -0.195
- AGATCGTG — higher, -0.0814
- CACGCATG — higher, 0.0109
- CCTGGTCA — lower, -0.174
- AATCATCT — higher, -0.0851
- TGCCTACA — higher, -0.0776
- ACTAGGGG — lower, -0.2
- AATGTAAA — higher, 0.193
- GTGGTTAA — higher, 0.0523
- GCGGGGAC — higher, -0.0472
- CGTCGTGC — higher, -0.00422
- AGGTATAA — higher, -0.0139
- CCGGAATA — higher, 0.0963
- GTTAAGCA — higher, -0.101
- GCAGACAC — higher, 0.168
- ATCAAATG — higher, 0.149
- GTTAGCTA — higher, -0.0351
- CGGCATGC — higher, 0.193
- AGAATGCA — higher, 0.129
- AGCTAGAT — higher, 0.121
- ATAGGAGA — lower, -0.222
- GGCCGTAA — higher, 0.00336
- TAGGTTCA — higher, 0.00473
- CCCCTTGA — higher, -0.109
- ATCCACAC — higher, -0.072
- TACTTCCA — higher, 0.0837
- CGTCGGTC — higher, -0.0905
- AAGTGTCG — higher, 0.159
- GATGATCA — higher, 0.102
- GCCATACA — higher, 0.075
- ACTAATCG — higher, 0.356
- CGCGCTAG — higher, 0.238
- GAGCACGA — higher, 0.0497
- ATCTGGGG — lower, -0.274
- CGTAAGAC — higher, 0.0326
- AAAGCCCT — higher, -0.134
- GCGTCCCA — higher, -0.0154
- TAGTATAA — higher, 0.0547
- AACCTCCG — higher, -0.101
- TGAAACAA — higher, 0.0338
- TACGCAGA — higher, 0.119
- ATCCATGC — higher, 0.0144
- CCAACGTA — higher, -0.0803
- CCCTGAGA — higher, -0.152
- CGAGGCCC — higher, -0.0676
- GGACAACC — higher, 0.0243
- CTAACGAC — higher, 0.0416
- ACTGTGCC — higher, 0.0125
- AAGATCCG — lower, -0.185
- GGTTTAGA — higher, -0.0592
- ATAGGGTC — lower, -0.177
- AGGTAGAC — higher, -0.113
- CGAAAGCA — higher, -0.0657
- GACTTCTC — higher, 0.0745
- CATTGTCA — higher, 0.167
- TGCACCCA — higher, -0.0054
- CCAACCCC — higher, -0.104
- ACCATTAC — higher, 0.026
- CAACGTGG — higher, 0.088
- ATTCACTA — higher, 0.173
- TATATCGA — higher, 0.154
- GAGCGGAC — lower, -0.284
- CTCGCGTA — higher, 0.0816
- GATGTGGC — lower, -0.171
- GTGTACCA — higher, -0.0325
- CCAGGACC — higher, -0.136
- AGGGATGA — higher, 0.07
- CAGAATTA — higher, 0.0723
- CAGTGGCA — lower, -0.241
- GTTCCATA — higher, 0.0772
- ACAAATGT — higher, 0.0516
- CAGCAAGG — lower, -0.251
- GAGGAAGA — higher, -0.164
- AAATTTCC — higher, 0.124
- AGTAGGAT — higher, -0.0755
- ATACTAGA — higher, 0.0384
- TTCCAAAA — higher, -0.036
- AACGACTG — higher, -0.0363
- CGCGGGTA — higher, 0.0697
- AGCTGCAT — higher, -0.128
- CACCTACG — higher, -0.0725
- ATGAGTTA — higher, 0.0121
- AACACTAG — higher, 0.11
- ACGTGTAT — higher, 0.0878
- ATACGGCA — higher, 0.201
- ATCCTCTG — higher, -0.105
- AATTGCAT — higher, 0.0616
- CTAGATAA — higher, 0.029
- CCGCGCTA — higher, 0.263
- ATATCAAT — higher, 0.253
- ACATCTGA — lower, -0.302
- CGAAGTAA — higher, -0.0088
- GCGATACA — higher, 0.106
- ATGGCCCC — lower, -0.356
- ATTAAATC — higher, 0.231
- ATTGATTA — higher, 0.286
- GTATAATA — higher, 0.283
- ACGTCGCC — higher, -0.129
- GTCCTAAA — higher, 0.111
